Data: PMC11005723, “Development of Complementary Photo‐arginine/lysine to Promote Discovery of Arg/Lys hPTMs Interactomes” (Advanced Science, 2024)

Protein sequences, listed by entry. Tags and fused reporters are not part of them.
UniProt Q969R5: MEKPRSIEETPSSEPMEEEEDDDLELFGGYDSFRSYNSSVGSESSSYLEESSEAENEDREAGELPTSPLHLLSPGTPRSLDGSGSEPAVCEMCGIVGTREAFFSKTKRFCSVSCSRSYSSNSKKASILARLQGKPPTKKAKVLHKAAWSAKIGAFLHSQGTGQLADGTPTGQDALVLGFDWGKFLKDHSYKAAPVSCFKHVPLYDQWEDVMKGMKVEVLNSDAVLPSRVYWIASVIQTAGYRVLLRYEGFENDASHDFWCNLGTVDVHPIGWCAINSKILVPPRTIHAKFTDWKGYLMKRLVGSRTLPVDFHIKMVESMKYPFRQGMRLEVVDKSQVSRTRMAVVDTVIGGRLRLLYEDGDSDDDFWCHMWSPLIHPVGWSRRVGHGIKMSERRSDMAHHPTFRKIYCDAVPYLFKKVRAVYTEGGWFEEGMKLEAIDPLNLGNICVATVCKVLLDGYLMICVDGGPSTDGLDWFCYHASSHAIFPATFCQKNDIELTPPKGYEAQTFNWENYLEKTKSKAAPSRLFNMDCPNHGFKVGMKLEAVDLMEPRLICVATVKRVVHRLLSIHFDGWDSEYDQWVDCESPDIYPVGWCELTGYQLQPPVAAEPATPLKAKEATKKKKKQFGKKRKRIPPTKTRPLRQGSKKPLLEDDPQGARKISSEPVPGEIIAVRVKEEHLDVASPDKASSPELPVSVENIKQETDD
UniProt O15047: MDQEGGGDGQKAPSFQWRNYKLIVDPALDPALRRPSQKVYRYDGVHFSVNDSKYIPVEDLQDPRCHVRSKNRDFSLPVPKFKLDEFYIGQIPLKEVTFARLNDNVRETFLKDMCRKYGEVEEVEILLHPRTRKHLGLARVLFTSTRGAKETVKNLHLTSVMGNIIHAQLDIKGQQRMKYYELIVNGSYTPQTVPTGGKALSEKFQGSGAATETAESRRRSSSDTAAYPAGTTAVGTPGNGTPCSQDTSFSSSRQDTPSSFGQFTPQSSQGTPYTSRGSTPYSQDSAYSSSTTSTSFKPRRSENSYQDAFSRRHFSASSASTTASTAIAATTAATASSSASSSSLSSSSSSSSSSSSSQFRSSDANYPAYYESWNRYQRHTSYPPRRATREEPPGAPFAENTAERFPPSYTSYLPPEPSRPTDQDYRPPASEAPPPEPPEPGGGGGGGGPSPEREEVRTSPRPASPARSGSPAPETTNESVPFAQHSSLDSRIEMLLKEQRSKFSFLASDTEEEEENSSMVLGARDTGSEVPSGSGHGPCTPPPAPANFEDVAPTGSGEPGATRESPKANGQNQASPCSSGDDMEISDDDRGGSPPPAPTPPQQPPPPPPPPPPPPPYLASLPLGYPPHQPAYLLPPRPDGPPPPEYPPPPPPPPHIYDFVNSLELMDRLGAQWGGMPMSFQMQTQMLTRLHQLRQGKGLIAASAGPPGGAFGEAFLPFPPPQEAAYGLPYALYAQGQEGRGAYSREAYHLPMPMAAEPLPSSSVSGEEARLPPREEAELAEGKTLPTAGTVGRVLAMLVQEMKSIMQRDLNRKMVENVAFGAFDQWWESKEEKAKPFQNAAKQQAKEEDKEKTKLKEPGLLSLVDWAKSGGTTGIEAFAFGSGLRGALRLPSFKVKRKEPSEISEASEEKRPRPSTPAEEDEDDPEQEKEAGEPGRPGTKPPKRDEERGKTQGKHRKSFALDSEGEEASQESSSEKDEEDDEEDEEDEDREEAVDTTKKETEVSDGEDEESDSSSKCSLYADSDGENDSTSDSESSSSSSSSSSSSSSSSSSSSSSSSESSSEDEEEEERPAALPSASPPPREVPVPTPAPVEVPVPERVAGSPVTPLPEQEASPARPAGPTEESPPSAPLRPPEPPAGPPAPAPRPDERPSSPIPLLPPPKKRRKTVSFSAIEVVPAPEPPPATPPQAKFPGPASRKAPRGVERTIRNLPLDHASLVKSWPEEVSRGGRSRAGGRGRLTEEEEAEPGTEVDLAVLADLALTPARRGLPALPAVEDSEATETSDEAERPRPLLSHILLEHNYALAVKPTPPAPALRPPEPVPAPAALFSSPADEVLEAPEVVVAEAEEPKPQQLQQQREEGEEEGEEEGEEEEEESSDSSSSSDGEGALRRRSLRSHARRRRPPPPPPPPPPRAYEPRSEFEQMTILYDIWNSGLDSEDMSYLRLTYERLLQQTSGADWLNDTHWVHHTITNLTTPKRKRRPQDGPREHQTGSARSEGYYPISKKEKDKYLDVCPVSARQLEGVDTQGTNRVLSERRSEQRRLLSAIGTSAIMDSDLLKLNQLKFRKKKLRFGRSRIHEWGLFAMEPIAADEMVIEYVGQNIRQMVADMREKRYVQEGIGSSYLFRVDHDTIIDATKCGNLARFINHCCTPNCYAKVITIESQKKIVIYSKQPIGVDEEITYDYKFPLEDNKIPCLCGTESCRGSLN

Tests used:
Test in all cases: affinity purification with mass spectrometry; SILAC; 10 µM biotinylated diazirine peptide probes with heavy or light HEK293T nuclear lysate (0.5 mg/mL), 4 °C 1 h, 365 nm UV 30 min on ice, mixed, denatured in SDS, streptavidin agarose, washes with 1% SDS and 4 M urea, LC-MS/MS; only the target purified
[1] = target: T1, H4K5me (probe 6)
T1 sequence (peptide, photo-arginine R(dz) at 3; monomethyl-lysine at 5; K(biotin) at 15): SGRGKGGKGLGKGGK

[2] = target: T2, H4K5me2 (probe 7)
T2 sequence (peptide, photo-arginine R(dz) at 3; dimethyl-lysine at 5; K(biotin) at 15): SGRGKGGKGLGKGGK

[3] = target: H3R2 (probe 3)

binding [3] | Substance | binding [1] | binding [2]
– | Lethal(3)malignant brain tumor‐like protein 2 (L3MBTL2) (from UniProt Q969R5 1-705) | binds | binds
binds | SETD1A (from UniProt O15047 1-1707) (enzyme) | – | –

No constants are given. Whether binding was seen depends on the method and setting. In cells and extracts the contact can be indirect. A yes stands for co-enrichment or nearness to the bait. Other partners may have been found.
